Source: patent US5077195A, “Polypeptides complementary to peptides or proteins having an amino acid sequence or nucleotide coding sequence at least partially known and methods of design therefor” (Board of Reagents, The University of Texas System, priority 1986, dated 1991)
Residue numbers refer to the chain shown, from its start. Not every detail of the peptide structures is certain; ends, links or a residue may be inferred. Where no end group is shown, it is not given here.

Tests used:
[1] = biological target: T1, adrenocorticotropic hormone (ACTH) (Mus musculus, UniProt P01193); assay: Blocking of stress response in mice, serum corticosterone; type: in vivo, mice (BALB/c)
T1 construct: animals produce adrenocorticotropic hormone (ACTH), which acts on adrenal cells; from tissue; host or cells: BALB/c mice in vivo (circulating endogenous hormone)
T1 sequence (P01193 124-162 limits assumed): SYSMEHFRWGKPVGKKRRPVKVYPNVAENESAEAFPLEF

HTCA [2] = assay: Vaccination of mice, antibody titer by solid phase RIA; type: in vivo, BALB/c mice; settings: Mouse
HTCA [3] = assay: Vaccination of rabbits, antibody titer by ELISA; type: in vivo; settings: Rabbit
[4] = Vaccination of mice, serum corticosterone by RIA; type: in vivo, BALB/c mice; settings: Mouse
[5] = Vaccination of rabbits, serum corticosterone by RIA; type: in vivo; settings: Rabbit
3'-5' HTCA = assay: ELISA binding of immunoglobulins to 3'-5' HTCA-coated plates; settings: Plates coated with 3'-5' HTCA
Protocol: (§1) Two peptides complementary to ACTH, described in Examples 1B and 1C as HTCA and 3'-5' HTCA, were each coupled to Keyhole Limpet Hemocyanin (KLH) with glutaraldeyde (1 mg peptide, 1 mg KLH, 30 mM glutaraldehyde for 30 minutes at room temperature followed by dialysis) to prepare antigens for rabbit immunization. Two rabbits were injected separately with 250 ug of peptide-KLH antigens weekly for four weeks. Each rabbit was bled biweekly for three weeks following the last injection. Antibodies representing the total immunoglobulin from serum of each rabbit was purified by precipitation from serum with 50% saturated ammonium sulfate at 4° C. followed by standard ion exchange chromatography on a DEAE column.
To examine the binding of each of the immunoglobulins to each of the peptides, enzyme-linked immunosorbant assays were performed. In these assays, one of the complementary peptides was coated onto polycarbonate plates in a carbonate coating buffer at pH 9.0 overnight. Unbound peptide was removed by washing three times with phosphate buffered saline (PBS)-TWEEN 20. Various amounts of immunoglobulins were added to peptide-coated wells in PBS-TWEEN 20 solution and incubated for one hour. Unbound immunoglobulin was removed by washing with PBS-TWEEN 20. To each well was added a 1:300 dilution of goat anti-rabbit IgG coupled to alkaline phosphatase enzyme. After one hour the wells were washed with PBS-TWEEN 20 to remove unbound secondary antibodies. The amount of remaining secondary antibody was determined by reacting p-nitrophenyl phosphate with the remaining aklaline phosphatase enzyme for 15 minutes, stopping the reaction with 3M NaOH, and measuring nitrophenol produced spectrophotometrically at 490 nm.

HTCA [6] = assay: ELISA binding of immunoglobulins to HTCA-coated plates; settings: Plates coated with HTCA; antibody 0.11 mg/ml
Protocol: as §1
To examine the binding of each of the immunoglobulins to each of the peptides, enzyme-linked immunosorbant assays were performed. In these assays, one of the complementary peptides was coated onto polycarbonate plates in a carbonate coating buffer at pH 9.0 overnight. Unbound peptide was removed by washing three times with phosphate buffered saline (PBS)-TWEEN 20. […] The amount of remaining secondary antibody was determined by reacting p-nitrophenyl phosphate with the remaining aklaline phosphatase enzyme for 15 minutes, stopping the reaction with 3M NaOH, and measuring nitrophenol produced spectrophotometrically at 490 nm.

^125 I-ACTH = biological target: T2, ^125 I-ACTH (Homo sapiens, UniProt P01189); assay: Solid-phase binding of ^125 I-ACTH to 5'-3' and 3'-5' complementary peptides
T2 construct: ACTH plates+immunized rabbit immunoglobulin
T2 sequence (P01189 138-176 limits assumed): T1 sequence (P01193 124-162 limits assumed) with V26G, N29D
Protocol: A solid-phase binding assay was used to determine the ability of both the 5'-to-3' and the 3'-to-5'-complementary-RNA-strand peptides (see Examples 1A and 1C) to bind ^125 I-ACTH. The peptides were diluted in phosphate-buffered saline (140 mM-NaCl/3 mM-KCl/0.1% NaN3 /20 mM-phosphate buffer, pH 7.4) to 2 mg/ml, and 0.2 ml/well was placed into poly(vinyl chloride) micro-titre plates (Becton and Dickinson, Oxnard, CA, U.S.A.). After 18 h at 4° C., unbound peptide was removed by washing three times with phosphate-buffered saline containing 0.1% bovine serum albumin (Sigma Chemical Co., St. Louis, MO, U.S.A.). ^125 I-ACTH was diluted to various concentrations with phosphate-buffered saline containing 0.1% bovine serum albumin and incubated in peptide-coated wells for 60 minutes at 4° C. […] After incubation, unbound radiolabel was washed out with phosphate-buffered saline containing 0.1% bovine serum albumin, and the radioactivity of individual wells was measured by gamma-radiation counting. The amount of specifically bound radioactivity was determined by blocking ^125 I-ACTH binding with unlabelled ACTH. Additional controls included coating wells with insulin or bovine serum albumin (2 mg/ml) before the addition of the ^125 I-ACTH.

ACTH (1-24) = biological target: T3, ACTH (1-24) (Homo sapiens, UniProt P01189); assay: ELISA binding of ACTH to HTCA-coated microtiter wells; settings: 10 ug ACTH
T3 construct: 10 ug synthetic ACTH (1-24) in PBS-Tween buffer; purchased Organon (West Orange, N.J.); host or cells: chemical synthesis
Protocol: From 1 to 25 micrograms (ug) per well of HTCA or insulin in carbonate-bicarbonate coating buffer were added to 96 well round bottom microtiter plates and incubated at 4° C. for 8 hr. The plates were then washed with phosphate buffered saline (PBS)-Tween 20 (Sigma Chemical Co., St. Louis, Mo.) buffer.
To the insulin-coated wells and to some of the HTCA-coated wells was added 10 ug synthetic ACTH (1-24) in PBS-Tween buffer. Control wells (HTCA alone) contained only PBS-Tween. The plates were incubated at room temperature for 2 hr. and then washed three times with PBS-Tween buffer. Rabbit antisera directed against the amide of synthetic ACTH 1-13 (Accurate Biochemicals, Westbury N.Y.) was added to each well and the plates were incubated for 1 hr at room temperature. Following 3 washes with PBS-Tween buffer, alkaline phosphatase-conjugated goat anti-rabbit Ig G (Miles Laboratories, Elkharbt, Ind.) in PBS-Tween buffer (1:300 dilution) was added. […] The enzymatic reaction was then stopped by the addition of 3N NaOH (50 ul) to each well and the optical absorbance of p-nitrophenol the alkaline phosphatase product, was measured at 405 nm. The ACTH bound to the coated microtiter wells was measured by this enzyme-linked immunoabsorbent assay (ELISA). […]

[7] = Day 0, control = immunized with KLH alone

GVHLHRAPLLAHRLAPAEVFHGVR [HTCA]
Corticosterone ([1]; 1 mg HTCA IM, delay 0.5 hr, stress 30 second immersion in ice water): 90 µg/dL
Corticosterone ([1]; 1 mg HTCA IM, delay 1.0 hr, stress): 55 µg/dL
Corticosterone ([1]; 1 mg HTCA IM, delay 2.0 hr, stress): 40 µg/dL
Corticosterone ([1]; 1 mg HTCA IM, delay 4.0 hr, stress): 60 µg/dL
Corticosterone ([1]; 1 mg HTCA IP, delay 0.5 hr, stress): 95 µg/dL
Corticosterone ([1]; 1 mg HTCA IP, delay 1.0 hr, stress): 85 µg/dL
Corticosterone ([1]; 1 mg HTCA IP, delay 2.0 hr, stress): 75 µg/dL
Corticosterone ([1]; 1 mg HTCA IP, delay 4.0 hr, stress): 65 µg/dL
Corticosterone ([1]; second experiment, 0.01 mg IM, held 2 hours, stress): 44 µg/dL
Corticosterone ([1]; second experiment, 0.1 mg IM, held 2 hours, stress): 37 µg/dL
Corticosterone ([1]; second experiment, 1.0 mg IM, held 2 hours, stress): 30 µg/dL
reduction in serum corticosterone (maximum effect) ([1]; stress 2 hours after intramuscular injection of 1 mg): ~50%
HTCA Titer (HTCA [2]; Day 0, immunized with HTCA-KLH conjugate, titer = serum dilution giving 100 cpm above background): 3.6
HTCA Titer (HTCA [2]; Day 7): 125
HTCA Titer (HTCA [2]; Day 14): 3125
HTCA Titer (HTCA [2]; Day 21): 25300
HTCA Titer (HTCA [2]; Day 28): 15600
HTCA Titer (HTCA [2]; Day 42): 21600
HTCA Titer (HTCA [3]; Day 0, immunized with HTCA-KLH conjugate, titer = serum dilution giving absorbance 0.05): 1.4
HTCA Titer (HTCA [3]; Day 10): 3.8
HTCA Titer (HTCA [3]; Day 20): 470
HTCA Titer (HTCA [3]; Day 30): 15000
HTCA Titer (HTCA [3]; Day 40): 104000
HTCA Titer (HTCA [3]; Day 60): 260000
Corticosterone (% of Control) [4, 7]: 100 % of Control
Corticosterone (% of Control) ([4]; Day 7): 158 % of Control
Corticosterone (% of Control) ([4]; Day 14): 92 % of Control
Corticosterone (% of Control) ([4]; Day 21): 78 % of Control
Corticosterone (% of Control) ([4]; Day 28): 135 % of Control
Corticosterone (% of Control) ([4]; Day 42): 111 % of Control
Corticosterone (% of Control) [5, 7]: 86 % of Control
Corticosterone (% of Control) ([5]; Day 10): 66 % of Control
Corticosterone (% of Control) ([5]; Day 20): 151 % of Control
Corticosterone (% of Control) ([5]; Day 30): 320 % of Control
Corticosterone (% of Control) ([5]; Day 40): 103 % of Control
Corticosterone (% of Control) ([5]; Day 60): 35 % of Control
Absorbance at 490 nm (3'-5' HTCA; antibody 0.012 mg/ml): 0.05 ± 0.01
Absorbance at 490 nm (3'-5' HTCA; antibody 0.04 mg/ml): 0.12 ± 0.06
Absorbance at 490 nm (3'-5' HTCA; antibody 0.11 mg/ml): 0.44 ± 0.06
Absorbance at 490 nm (3'-5' HTCA; antibody 0.3 mg/ml): 1.39 ± 0.21
Absorbance at 490 nm (HTCA [6]): 0.98 ± 0.18
effectiveness in binding ACTH (in words) (^125 I-ACTH): equally effective in binding ACTH
binding of ACTH (1-24) to coated microtiter wells (in words) (ACTH (1-24)): bound by HTCA coated microtiter wells
